Measurements taken from PubChem BioAssay AID248 (DTP/NCI, 2004).
The list is a part of this screen's results and no random one: it gathers tests that were run many times, whatever their T/C, doses with no T/C, and many T/C values between a quarter and a half above the control. Other doses and runs of a compound stand elsewhere. T/C: endpoint of the treated group in % of that of the vehicle group. Some doses have a count of surviving animals in place of a T/C: the source files T/C as zero there, which appears to mark a toxic dose or a test without result, not a measured value. Some doses without a T/C left all or most animals alive at the check, yet need not have been tolerated: the source hardly ever lists a survival T/C far under the control, and the zero likely stands for such cases as well. Survivors were counted at the toxicity check, usually on the fifth day, unless a day is given; later deaths do not show. Schedules are NCI's codes, taken here to give the interval after Q, in days (D) or hours (H), and the number of doses after X. Some structures stand for samples that the source files as different forms (salt, stereo form or complex); doses refer to the form tested. Some schedule codes hold Z or #, which are not explained here. Some doses were run more than once; their values stand side by side, smallest first. For survival time, this PubChem deposit counts one and a half times the control or more as active, and values a quarter to a half above the control carry no call in these data; other NCI protocols may use other cut-offs. Some T/C values carry the count of animals alive at the toxicity check (mostly the fifth day); without a count, all were alive then.

Test system: L1210 leukemia ip in BDF1 mice, survival T/C
Experiment: NCI In Vivo Anticancer Drug Screen. Data for tumor model L1210 Leukemia (intraperitoneal) in B6D2F1 (BDF1) mice
Settings: T/C endpoint: mean survival time, higher T/C = longer survival
[1] = dose: 200.0 mg/kg/injection, schedule: Q04DX003 (ip), vehicle: Klucel (hydroxypropylcellulose) (HPC)
[2] = dose: 400.0 mg/kg/injection, schedule: Q04DX003 (ip), vehicle: Klucel (hydroxypropylcellulose) (HPC)
[3] = dose: 200.0 mg/kg/injection, schedule: Q01DX009 (ip), vehicle: saline with Tween-80
[4] = dose: 100.0 mg/kg/injection, schedule: Q01DX009 (ip), vehicle: saline
[5] = dose: 200.0 mg/kg/injection, schedule: Q04DX002 (ip), vehicle: saline
[6] = dose: 200.0 mg/kg/injection, schedule: Q04DX003 (ip), vehicle: saline
[7] = dose: 400.0 mg/kg/injection, schedule: Q04DX002 (ip), vehicle: saline
[8] = dose: 400.0 mg/kg/injection, schedule: Q04DX003 (ip), vehicle: saline
[9] = dose: 100.0 mg/kg/injection, schedule: Q01DX009 (ip), vehicle: Klucel (hydroxypropylcellulose) (HPC)
[10] = dose: 200.0 mg/kg/injection, schedule: Q01DX009 (ip), vehicle: Klucel (hydroxypropylcellulose) (HPC)
[11] = dose: 100.0 mg/kg/injection, schedule: Q01DX001 (ip), vehicle: saline
[12] = dose: 200.0 mg/kg/injection, schedule: Q01DX001 (ip), vehicle: saline
[13] = dose: 400.0 mg/kg/injection, schedule: Q01DX001 (ip), vehicle: saline
[14] = dose: 200.0 mg/kg/injection, schedule: Q04DX003 (ip), vehicle: saline with Tween-80

Question: How did the survivor count (dose: 12.0 mg/kg/injection, schedule: Q01DX009 (ip), vehicle: Klucel (hydroxypropylcellulose) (HPC)) turn out when CCNC(=S)C(=S)NCC was run?
Answer: Its survivor count is 4 of 6.

Question: And the survivor count (dose: 25.0 mg/kg/injection, schedule: Q04DX003 (ip), vehicle: Klucel (hydroxypropylcellulose) (HPC))?
Answer: The survivor count was 6 of 6.

Question: And the survivor count (dose: 50.0 mg/kg/injection, schedule: Q04DX003 (ip), vehicle: Klucel (hydroxypropylcellulose) (HPC))?
Answer: The survivor count was 1 of 6.

Question: And the survivor count (dose: 100.0 mg/kg/injection, schedule: Q04DX003 (ip), vehicle: Klucel (hydroxypropylcellulose) (HPC))?
Answer: Its survivor count is 0 of 6.

Question: What about the survivor count [1] of the same compound?
Answer: Its survivor count is 0 of 6.

Question: And the survivor count [2]?
Answer: The survivor count was 0 of 6.

Question: CCCCCCCCP(C)(=O)CCCCCCCC was tested. Which survivor count (dose: 400.0 mg/kg/injection, schedule: Q04DX002 (ip), vehicle: Klucel (hydroxypropylcellulose) (HPC)) did it give?
Answer: The survivor count was 1 of 3.

Question: Which survivor count [3] does the source give for CCOC(=O)c1cnn(C(N)=S)c1N here?
Answer: Its survivor count is 4 of 6.

Question: Which results are given for COc1ccccc1C(=O)NN?
Answer: survivor count [4]: 1 of 6; survivor count (dose: 100.0 mg/kg/injection, schedule: Q04DX002 (ip), vehicle: saline): 2 of 3; survivor count (dose: 100.0 mg/kg/injection, schedule: Q04DX003 (ip), vehicle: saline): 0 of 6; survivor count [5]: 0 of 3; survivor count [6]: 0 of 6; survivor count [7]: 0 of 3; survivor count [8]: 0 of 6

Question: How did the survivor count [9] turn out when C=CCNC(=S)Nc1c(C)cc(C)cc1C was run?
Answer: The survivor count was 5 of 6.

Question: What about the survivor count [10] of the same compound?
Answer: The survivor count was 1 of 6.

Question: And the survivor count (dose: 400.0 mg/kg/injection, schedule: Q01DX009 (ip), vehicle: Klucel (hydroxypropylcellulose) (HPC))?
Answer: Its survivor count is 0 of 6.

Question: Which survivor count [2] does the source give for [O-]/[N+](=C\c1cccc(Cl)c1)c1ccccc1 here?
Answer: The survivor count was 3 of 6.

Question: What does the source list for CS(=O)(=O)O.[Cu+2]?
Answer: survivor count (dose: 20.0 mg/kg/injection, schedule: Q01DX001 (ip), vehicle: saline): 2 of 4; survivor count (dose: 40.0 mg/kg/injection, schedule: Q01DX001 (ip), vehicle: saline): 0 of 4; survivor count (dose: 50.0 mg/kg/injection, schedule: Q01DX001 (ip), vehicle: saline): 1 of 4; survivor count (dose: 80.0 mg/kg/injection, schedule: Q01DX001 (ip), vehicle: saline): 0 of 4; survivor count [11]: 0 of 4; survivor count [12]: 0 of 4; survivor count [13]: 0 of 4

Question: Which results are given for Clc1ccc(CNc2ccccn2)s1?
Answer: survivor count (dose: 75.0 mg/kg/injection, schedule: Q01DX001 (ip), vehicle: saline): 6 of 6; survivor count (dose: 300.0 mg/kg/injection, schedule: Q01DX001 (ip), vehicle: saline): 6 of 6

Question: With CCOC(=O)c1[nH]c2ccccc2c1CN(CCCl)CCCl as the compound, how does the T/C (dose: 40.0 mg/kg/injection, schedule: Q01DX Z (ip), vehicle: other) read?
Answer: Its T/C is 138 % of control.

Question: What about the survivor count (dose: 80.0 mg/kg/injection, schedule: Q01DX Z (ip), vehicle: other) of the same compound?
Answer: Its survivor count is 0 of 6.

Question: COc1ccc(CSc2ncnc3nc[nH]c23)cc1 was tested. Which T/C (dose: 100.0 mg/kg/injection, schedule: Q01DX015 (ip), vehicle: carboxymethylcellulose (CMC)) did it give?
Answer: The T/C was 133 % of control.

Question: Which survivor count (dose: 300.0 mg/kg/injection, schedule: Q04DX003 (ip), vehicle: other) does the source give for O=S1(=O)CCCCC1Cl (stereo unspecified) here?
Answer: The survivor count was 2 of 6.

Question: CCN(CC)CCOc1ccc(-c2ccccc2)cc1 was tested. Which survivor count [14] did it give?
Answer: The survivor count was 5 of 6.

Question: Which results are given for Cc1cc(C)c(CN)cc1CN?
Answer: survivor count [14]: 2 of 6; survivor count (dose: 400.0 mg/kg/injection, schedule: Q04DX003 (ip), vehicle: saline with Tween-80): 1 of 6

Question: With CN1C(=O)C2C(N=CN2C)N(C)C1=O (stereo unspecified) as the compound, how does the survivor count (dose: 400.0 mg/kg/injection, schedule: Q01DX009 (ip), vehicle: saline with Tween-80) read?
Answer: The survivor count was 0 of 6.

Question: COC(=O)Nc1cc2c3c(c1)CCCN3CCC2 was tested. Which survivor count [3] did it give?
Answer: Its survivor count is 6 of 6.

Question: With CCN(CC)CCCC(C)Nc1c2ccccc2nc2c(Cl)cccc12 (stereo unspecified) as the compound, how does the survivor count (dose: 33.33 mg/kg/injection, schedule: Q#B X Z (ip), vehicle: methylcellulose (MC)) read?
Answer: Its survivor count is 0 of 6.

Question: What about the survivor count (dose: 45.0 mg/kg/injection, schedule: Q07DX Z (ip), vehicle: methylcellulose (MC)) of the same compound?
Answer: Its survivor count is 0 of 6.

Question: And the survivor count (dose: 67.0 mg/kg/injection, schedule: Q07DX Z (ip), vehicle: methylcellulose (MC))?
Answer: Its survivor count is 0 of 6.

Question: What about the survivor count (dose: 100.0 mg/kg/injection, schedule: Q01DX Z (ip), vehicle: methylcellulose (MC)) of the same compound?
Answer: Its survivor count is 0 of 6 and 4 of 6.

Question: And the survivor count (dose: 100.0 mg/kg/injection, schedule: Q03DX Z (ip), vehicle: methylcellulose (MC))?
Answer: Its survivor count is 0 of 6.

Question: And the survivor count (dose: 100.0 mg/kg/injection, schedule: Q07DX Z (ip), vehicle: methylcellulose (MC))?
Answer: Its survivor count is 0 of 6.

Question: What about the survivor count [1] of the same compound?
Answer: The survivor count was 1 of 6.

Question: O=C(O)c1cccc2c1OCO2 was tested. Which survivor count (dose: 400.0 mg/kg/injection, schedule: Q04DX002 (ip), vehicle: saline with Tween-80) did it give?
Answer: Its survivor count is 3 of 3.

Question: With CC/C(=N\N=C(/CC)c1ccccc1)c1ccccc1 as the compound, how does the survivor count [9] read?
Answer: The survivor count was 6 of 6.

Question: What about the survivor count [10] of the same compound?
Answer: The survivor count was 6 of 6.

Question: With Brc1ccccc1C[n+]1ccc2ccccc2c1 as the compound, how does the survivor count (dose: 75.0 mg/kg/injection, schedule: Q01DX001 (ip), vehicle: other) read?
Answer: The survivor count was 0 of 6.

Question: And the survivor count (dose: 150.0 mg/kg/injection, schedule: Q01DX001 (ip), vehicle: other)?
Answer: Its survivor count is 0 of 6.

Question: And the survivor count (dose: 300.0 mg/kg/injection, schedule: Q01DX001 (ip), vehicle: other)?
Answer: Its survivor count is 0 of 6.

Question: For C[N+](C)(CCCC[N+](C)(C)Cc1ccccc1)Cc1ccccc1, which survivor count [11] is on record?
Answer: Its survivor count is 0 of 4.

Question: What about the survivor count [12] of the same compound?
Answer: The survivor count was 0 of 4.

Question: And the survivor count [13]?
Answer: Its survivor count is 0 of 4.

Question: Which T/C (dose: 67.0 mg/kg/injection, schedule: Q01DX Z (ip), vehicle: saline) does the source give for Nc1nc(=O)n(C2CC(O)C(CO)O2)cc1F (stereo unspecified) here?
Answer: Its T/C is 128 and 141 % of control.

Question: And the T/C (dose: 100.0 mg/kg/injection, schedule: Q01DX Z (ip), vehicle: saline)?
Answer: Its T/C is 125 [4 of 6 alive] and 135 % of control.

Question: What about the T/C (dose: 150.0 mg/kg/injection, schedule: Q01DX Z (ip), vehicle: saline) of the same compound?
Answer: Its T/C is 129 % of control.

Question: With CCOCc1cnc(C)nc1N as the compound, how does the survivor count (dose: 400.0 mg/kg/injection, schedule: Q01DX001 (ip), vehicle: saline with Tween-80) read?
Answer: Its survivor count is 0 of 3.

Question: Which survivor count (dose: 200.0 mg/kg/injection, schedule: Q01DX005 (ip), vehicle: saline with Tween-80) does the source give for Cc1cc(C2=NCC(C)(C)S2)ccc1O here?
Answer: Its survivor count is 3 of 3.

Question: What about the survivor count (dose: 400.0 mg/kg/injection, schedule: Q01DX005 (ip), vehicle: saline with Tween-80) of the same compound?
Answer: The survivor count was 3 of 3.

Question: What does the source list for CN(C)CC(Oc1ccccc1)c1ccccc1 (stereo unspecified)?
Answer: survivor count [5]: 0 of 3; survivor count [7]: 0 of 3

Question: With C=CCC(N)Cc1ccccc1 (stereo unspecified) as the compound, how does the survivor count [4] read?
Answer: The survivor count was 1 of 6.

Question: And the survivor count [6]?
Answer: Its survivor count is 1 of 4.

Question: What about the survivor count [8] of the same compound?
Answer: The survivor count was 0 of 4.

Question: With c1ccc(C(NC2CC3CCC2C3)c2ccccc2)cc1 (stereo unspecified) as the compound, how does the survivor count (dose: 400.0 mg/kg/injection, schedule: Q01DX001 (ip), vehicle: Klucel (hydroxypropylcellulose) (HPC)) read?
Answer: Its survivor count is 1 of 6.

Question: With C=CC/C=C/CCC as the compound, how does the survivor count (dose: 100.0 mg/kg/injection, schedule: Q01DX001 (ip), vehicle: carboxymethylcellulose (CMC)) read?
Answer: Its survivor count is 4 of 4.
